Laboratory results taken from US20080033056A1 (Metaproteomics, LLC, priority 2006, published 2008).
For at least one compound, name, drawing or mass did not settle the structure.

Experiments:
[1] = tested on: NF-κB; assay: NF-κB DNA binding (TransAM) in nuclear extracts of LPS-stimulated RAW 264.7 cells; format: cell-based, murine; conditions: LPS 4 h
[2] = tested on: 3T3-L1 adipocytes; assay: Lipogenesis in 3T3-L1 adipocytes (Oil Red O / BODIPY); format: cell-based, murine; conditions: relative to controls

Structure (SMILES)	NF-κB DNA binding [1]	lipogenic/adipogenic response [2]
O=c1cc(N2CCOCC2)oc2c(-c3ccccc3)cccc12 [LY294002]	modest decrease of NF-κB binding	–
Cc1c(C)c2c(c(C)c1O)CCC(C)(COc1ccc(CC3SC(=O)NC3=O)cc1)O2 (centres unmarked) [Troglitazone]	–	induced lipogenesis to a similar extent
